Drawing on US20140135270A1 (Ensemble Therapeutics Corp., priority 2012, published 2014), this text covers step yield for three substances.

The data set is described as follows: general procedure: Fmoc solid-phase peptide synthesis; 2-chlorotrityl resin (Annaspec, 1.58 mmol/g); HATU/NMM. As to conditions: TFA salt converted to HCl salt (Example 1).

Turning to “(S)-2-((2S,4S)-4-Allyl-1-((S)-2-((S)-2-((tert-butoxycarbonyl)(methyl)amino) propanamido)-3,3-dimethylbutanoyl)pyrrolidine-2-carboxamido)-3-(naphthalen-2-yl)propanoic acid”, the step yield (late stage modification step) is given as 98%.
“(S)-Methyl 2-((2S,4S)-4-allyl-1-((S)-2-((S)-2-((tert-butoxycarbonyl)(methyl)amino)propanamido)-3,3-dimethylbutanoyl)pyrrolidine-2-carboxamido)-3-(naphthalen-2-yl)propanoate”: the step yield (coupling step) turned out to be 64%.
Consider “tert-Butyl((S)-1-(((S)-1-((2S,4S)-4-allyl-2-(((S)-1-(((S)-1-(cyclopropanesulfonamido)-1-oxo-3-(4-(prop-2-yn-1-yloxy)phenyl)propan-2-yl)amino)-3-(naphthalen-2-yl)-1-oxopropan-2-yl)carbamoyl)pyrrolidin-1-yl)-3,3-dimethyl-1-oxobutan-2-yl)amino)-1-oxopropan-2-yl)(methyl)carbamate”, for which the step yield (coupling step) was found to be 76%.
